Source: publication PMC10710042
Results are given in words; binding and its absence hold for the method and conditions named. In cells and extracts the contact can be indirect. Some binding calls cover weakened binding; strength is not graded here. Where a sequence is shown, tags or fusion partners need not be part of it.

Target: Flag-RBM10 (UniProt P98175)
Assay: co-IP; co-IP-WB of mutant and wild-type RBM10 (SI Appendix, Fig. S10); cells and tags not shown

- binding: binds
B1: GFP-RBM10-I316F (protein, UniProt P98175 1-930)
chain: MEYERRGGRGDRTGRYGATDRSQDDGGENRSRDHDYRDMDYRSYPREYGSQEGKHDYDDSSEEQSAEDSYEASPGSETQRRRRRRHRHSPTGPPGFPRDGDYRDQDYRTEQGEEEEEEEDEEEEEKASNIVMLRMLPQAATEDDIRGQLQSHGVQAREVRLMRNKSSGQSRGFAFVEFSHLQDATRWMEANQHSLNILGQKVSMHYSDPKPKINEDWLCNKCGVQNFKRREKCFKCGVPKSEAEQKLPLGTRLDQQTLPLGGRELSQGLLPLPQPYQAQGVLASQALSQGSEPSSENANDTIILRNLNPHSTMDSFLGALAPYAVLSSSNVRVIKDKQTQLNRGFAFIQLSTIVEAAQLLQILQALHPPLTIDGKTINVEFAKGSKRDMASNEGSRISAASVASTAIAAAQWAISQASQGGEGTWATSEEPPVDYSYYQQDEGYGNSQGTESSLYAHGYLKGTKGPGITGTKGDPTGAGPEASLEPGADSVSMQAFSRAQPGAAPGIYQQSAEASSSQGTAANSQSYTIMSPAVLKSELQSPTHPSSALPPATSPTAQESYSQYPVPDVSTYQYDETSGYYYDPQTGLYYDPNSQYYYNAQSQQYLYWDGERRTYVPALEQSADGHKETGAPSKEGKEKKEKHKTKTAQQIAKDMERWARSLNKQKENFKNSFQPISSLRDDERRESATADAGYAILEKKGALAERQHTSMDLPKLASDDRPSPPRGLVAAYSGESDSEEEQERGGPEREEKLTDWQKLACLLCRRQFPSKEALIRHQQLSGLHKQNLEIHRRAHLSENELEALEKNDMEQMKYRDRAAERREKYGIPEPPEPKRRKYGGISTASVDFEQPTRDGLGSDNIGSRMLQAMGWKEGSGLGRKKQGIVTPIEAQTRVRGSGLGARGSSYGVTSTESYKETLHKTMVTRFNEAQ
